From patent publication US8691855B2, “Compounds, isomer thereof, or pharmaceutically acceptable salts thereof as vanilloid receptor antagonist and pharmaceutical compositions containing the same” (Amorepacific Corporation, priority 2008, dated 2014)

Protein sequences, listed by entry. Tags and fused reporters are not part of them.
UniProt O35433, whole entry: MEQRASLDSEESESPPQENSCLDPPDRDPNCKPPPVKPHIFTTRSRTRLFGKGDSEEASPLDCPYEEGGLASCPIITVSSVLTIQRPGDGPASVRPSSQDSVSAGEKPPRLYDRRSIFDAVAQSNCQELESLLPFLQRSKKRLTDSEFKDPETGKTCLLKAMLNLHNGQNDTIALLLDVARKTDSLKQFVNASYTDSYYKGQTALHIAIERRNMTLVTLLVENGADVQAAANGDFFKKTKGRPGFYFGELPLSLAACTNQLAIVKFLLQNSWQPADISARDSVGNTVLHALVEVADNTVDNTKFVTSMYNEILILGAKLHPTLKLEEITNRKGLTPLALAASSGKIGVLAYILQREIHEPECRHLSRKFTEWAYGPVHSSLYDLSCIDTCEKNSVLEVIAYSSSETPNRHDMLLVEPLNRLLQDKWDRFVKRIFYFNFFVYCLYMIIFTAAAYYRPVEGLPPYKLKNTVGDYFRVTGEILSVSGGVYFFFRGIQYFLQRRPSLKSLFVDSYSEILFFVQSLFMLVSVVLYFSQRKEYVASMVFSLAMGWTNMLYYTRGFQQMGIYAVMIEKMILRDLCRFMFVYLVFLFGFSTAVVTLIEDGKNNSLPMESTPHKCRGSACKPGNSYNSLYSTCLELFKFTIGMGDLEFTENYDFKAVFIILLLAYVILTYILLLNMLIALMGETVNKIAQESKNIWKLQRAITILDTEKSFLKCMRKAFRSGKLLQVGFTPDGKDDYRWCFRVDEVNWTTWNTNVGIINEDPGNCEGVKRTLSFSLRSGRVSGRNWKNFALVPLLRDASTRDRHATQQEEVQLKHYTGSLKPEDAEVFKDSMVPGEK

Molecular target: T1, vanilloid receptor (Rattus norvegicus, UniProt O35433)
T1 construct: DRG nerve cells from the primary culture of 2 days were equilibrated; endogenous in cells; host or cells: primary culture of dorsal root ganglion neurons from neonatal SD rats
Test: 45Ca influx test (antagonist calcium uptake test) in rat DRG neurons stimulated with capsaicin
Format: cell-based
Settings: DRG neuron, neonatal SD rat DRG neurons, capsaicin 0.5 μM, read-out: Antagonist Calcium Uptake Test, percent inhibition of capsaicin response
Method: 1) Separation of spinal dorsal root ganglia (DRG) in newborn rats and primary culture thereof
Neonatal (2-3 clay old or younger than 2-3 day old) SD rats were put in ice for 5 minutes to anesthetize and disinfected with 70% ethanol. DRG of all part of spinal cord were dissected (Wood et al., 1988, J. Neurosci. 8, pp 3208-3220) and collected in DME/F12 medium to which 1.2 g/l sodium bicarbonate and 50 mg/l gentamycin were added. The DRG were incubated sequentially at 37° C. for 30 mins in 200 U/ml collagenase and 2.5 mg/ml trypsin, separately. The ganglia were washed twice with DME/F12 medium supplemented with 10% horse serum, triturated through a fire-polished Pasteur pipette, filtered through Nitex 80 membrane to obtain single cell suspension and the suspension was washed once more. This was subjected to centrifugation, then resuspended in cell culture medium at certain level of cell density. […]
DRG nerve cells from the primary culture of 2 days were equilibrated by washing 4 times with HEPES (10 mM, pH 7.4)-buffered Ca^2+, Mg^2+-free HBSS (H-HBSS). […] After the addition of scintillation cocktail of into each well, the amount of ^45Ca influx into neuron was measured by counting radioactivity. […]

C[C@@H](NC(=O)c1coc(-c2cc(C3CC3)cc(C3CC3)c2)n1)c1cc(F)c(NS(C)(=O)=O)c(F)c1 [Example 106, 2-(3,5-Dicyclopropyl-phenyl)-oxazole-4-carboxylic acid [1-(3,5-difluoro-4-methanesulfonylamino-phenyl)-ethyl]-amide]
inhibition at 10 µM: 82%
